From publication doi:10.1101/2020.02.20.955922
No constants are given. Whether binding was seen depends on the method and setting. In cells and extracts the contact can be indirect. Some entries that bind do so weakly or less than the wild type. Tags and fused reporters may be left off the sequences shown.

T1: GFP-TSN2 (Arabidopsis thaliana) (UniProt Q9FLT0)
T1 sequence: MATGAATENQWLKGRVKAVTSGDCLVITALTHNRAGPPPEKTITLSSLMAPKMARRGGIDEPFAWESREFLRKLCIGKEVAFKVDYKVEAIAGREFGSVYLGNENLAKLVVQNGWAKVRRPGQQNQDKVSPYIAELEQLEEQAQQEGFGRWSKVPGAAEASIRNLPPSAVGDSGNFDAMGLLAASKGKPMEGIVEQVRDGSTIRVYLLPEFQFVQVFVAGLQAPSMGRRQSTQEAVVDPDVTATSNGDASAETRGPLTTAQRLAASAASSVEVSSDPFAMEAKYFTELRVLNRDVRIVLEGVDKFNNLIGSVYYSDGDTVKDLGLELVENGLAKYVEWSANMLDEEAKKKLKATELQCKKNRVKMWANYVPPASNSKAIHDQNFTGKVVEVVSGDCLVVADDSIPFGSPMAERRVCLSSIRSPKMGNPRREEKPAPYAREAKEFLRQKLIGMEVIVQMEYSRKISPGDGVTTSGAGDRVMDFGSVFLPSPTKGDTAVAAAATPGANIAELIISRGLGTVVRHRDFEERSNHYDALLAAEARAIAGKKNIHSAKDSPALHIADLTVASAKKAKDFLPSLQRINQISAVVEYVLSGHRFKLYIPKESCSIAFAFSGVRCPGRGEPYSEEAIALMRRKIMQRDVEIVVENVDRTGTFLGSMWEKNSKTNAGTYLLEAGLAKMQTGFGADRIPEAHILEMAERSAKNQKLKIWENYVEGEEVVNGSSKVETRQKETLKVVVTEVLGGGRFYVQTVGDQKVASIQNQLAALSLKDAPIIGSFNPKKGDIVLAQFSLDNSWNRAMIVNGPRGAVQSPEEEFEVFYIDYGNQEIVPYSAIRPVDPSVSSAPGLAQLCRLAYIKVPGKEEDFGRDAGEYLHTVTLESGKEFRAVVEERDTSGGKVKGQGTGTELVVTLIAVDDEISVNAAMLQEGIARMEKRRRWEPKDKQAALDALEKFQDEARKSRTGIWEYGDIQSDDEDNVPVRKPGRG

T2: GFP-TSN1 (Arabidopsis thaliana) (UniProt Q8VZG7)
T2 sequence: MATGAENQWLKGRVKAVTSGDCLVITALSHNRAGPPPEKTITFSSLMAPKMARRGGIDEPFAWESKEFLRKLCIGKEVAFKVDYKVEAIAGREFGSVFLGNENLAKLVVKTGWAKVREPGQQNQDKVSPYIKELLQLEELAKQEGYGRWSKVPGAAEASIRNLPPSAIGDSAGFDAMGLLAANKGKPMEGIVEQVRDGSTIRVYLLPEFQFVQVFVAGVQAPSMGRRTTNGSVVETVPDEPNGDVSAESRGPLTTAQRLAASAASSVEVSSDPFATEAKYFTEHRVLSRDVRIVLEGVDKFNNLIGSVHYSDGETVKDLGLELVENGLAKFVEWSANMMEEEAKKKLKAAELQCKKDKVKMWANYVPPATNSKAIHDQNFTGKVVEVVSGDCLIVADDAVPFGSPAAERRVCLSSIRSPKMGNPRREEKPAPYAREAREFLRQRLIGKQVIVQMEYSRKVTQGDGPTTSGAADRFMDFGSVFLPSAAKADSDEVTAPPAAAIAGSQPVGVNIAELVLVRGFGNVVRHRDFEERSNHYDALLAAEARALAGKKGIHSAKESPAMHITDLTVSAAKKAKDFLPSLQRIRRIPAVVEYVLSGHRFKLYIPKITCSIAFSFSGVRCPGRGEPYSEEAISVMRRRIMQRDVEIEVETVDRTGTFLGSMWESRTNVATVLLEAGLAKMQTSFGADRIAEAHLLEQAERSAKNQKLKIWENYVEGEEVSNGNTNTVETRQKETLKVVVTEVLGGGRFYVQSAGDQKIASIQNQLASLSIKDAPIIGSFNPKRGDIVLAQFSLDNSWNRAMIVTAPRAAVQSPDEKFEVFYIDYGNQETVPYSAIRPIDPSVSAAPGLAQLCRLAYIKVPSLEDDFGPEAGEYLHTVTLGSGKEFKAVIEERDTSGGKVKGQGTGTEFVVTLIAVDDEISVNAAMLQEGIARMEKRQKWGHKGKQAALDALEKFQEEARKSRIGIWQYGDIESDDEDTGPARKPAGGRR

T3: SnRK1.2 fused to YFP or CFP (FRET construct) (Arabidopsis thaliana) (UniProt P92958)
T3 sequence: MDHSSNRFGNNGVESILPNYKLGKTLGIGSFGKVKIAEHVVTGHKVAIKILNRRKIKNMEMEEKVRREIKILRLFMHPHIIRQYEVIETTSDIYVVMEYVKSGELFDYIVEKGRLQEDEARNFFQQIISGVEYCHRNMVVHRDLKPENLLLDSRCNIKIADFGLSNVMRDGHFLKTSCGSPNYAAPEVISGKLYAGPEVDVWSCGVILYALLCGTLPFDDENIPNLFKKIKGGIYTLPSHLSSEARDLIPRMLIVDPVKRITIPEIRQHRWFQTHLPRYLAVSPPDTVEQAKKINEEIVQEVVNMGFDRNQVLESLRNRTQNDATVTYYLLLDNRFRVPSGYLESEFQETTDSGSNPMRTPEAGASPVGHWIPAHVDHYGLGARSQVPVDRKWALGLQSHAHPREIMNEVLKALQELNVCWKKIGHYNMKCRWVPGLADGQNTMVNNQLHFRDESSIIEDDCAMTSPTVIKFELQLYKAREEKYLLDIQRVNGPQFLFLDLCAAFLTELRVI


Legend:
[1] = biological target: T1, GFP-TSN2 (Arabidopsis thaliana); test: co-IP
[2] = biological target: T2, GFP-TSN1 (Arabidopsis thaliana); test: co-IP
[3] = biological target: T3, SnRK1.2 fused to YFP or CFP (FRET construct) (Arabidopsis thaliana); test: FRET or BRET

binding [1] | binding [2] | binding [3] | Binder
binds | binds |  | Myc-RH12 (protein, UniProt Q9M2E0 1-498) MNTNRGRYPPGVGTGRGAPPNPDYHQSYRQQQPPQDQQYVQRGYSQNPQQMQLQQQHQQQQQQQQWSRRPQLPGNASNANEVVQQTTQPEASSDANGQDWKATLRLPPPDTRYQTADVTATKGNEFEDYFLKRDLLKGIYEKGFEKPSPIQEESIPIALTGSDILARAKNGTGKTGAFCIPVLEKIDPNNNVIQAMILVPTRELALQTSQVCKELSKYLNIQVMVTTGGTSLRDDIMRLHQPVHLLVGTPGRILDLTKKGVCVLKDCAMLVMDEADKLLSAEFQPSLEELIQFLPQNRQFLMFSATFPVTVKAFKDRHLRKPYVINLMDQLTLMGVTQYYAFVEERQKVHCLNTLFSKLQINQSIIFCNSVNRVELLAKKITELGYSCFYIHAKMVQDHRNRVFHEFRNGACRNLVCTDLFTRGIDIQAVNVVINFDFPRTSESYLHRVGRSGRFGHLGLAVNLVTYEDRFKMYQTEQELGTEIKPIPSNIDQAIYCQ
 |  | binds | TSN2 fused to YFP or CFP (FRET construct) (protein, UniProt Q9FLT0 1-985) MATGAATENQWLKGRVKAVTSGDCLVITALTHNRAGPPPEKTITLSSLMAPKMARRGGIDEPFAWESREFLRKLCIGKEVAFKVDYKVEAIAGREFGSVYLGNENLAKLVVQNGWAKVRRPGQQNQDKVSPYIAELEQLEEQAQQEGFGRWSKVPGAAEASIRNLPPSAVGDSGNFDAMGLLAASKGKPMEGIVEQVRDGSTIRVYLLPEFQFVQVFVAGLQAPSMGRRQSTQEAVVDPDVTATSNGDASAETRGPLTTAQRLAASAASSVEVSSDPFAMEAKYFTELRVLNRDVRIVLEGVDKFNNLIGSVYYSDGDTVKDLGLELVENGLAKYVEWSANMLDEEAKKKLKATELQCKKNRVKMWANYVPPASNSKAIHDQNFTGKVVEVVSGDCLVVADDSIPFGSPMAERRVCLSSIRSPKMGNPRREEKPAPYAREAKEFLRQKLIGMEVIVQMEYSRKISPGDGVTTSGAGDRVMDFGSVFLPSPTKGDTAVAAAATPGANIAELIISRGLGTVVRHRDFEERSNHYDALLAAEARAIAGKKNIHSAKDSPALHIADLTVASAKKAKDFLPSLQRINQISAVVEYVLSGHRFKLYIPKESCSIAFAFSGVRCPGRGEPYSEEAIALMRRKIMQRDVEIVVENVDRTGTFLGSMWEKNSKTNAGTYLLEAGLAKMQTGFGADRIPEAHILEMAERSAKNQKLKIWENYVEGEEVVNGSSKVETRQKETLKVVVTEVLGGGRFYVQTVGDQKVASIQNQLAALSLKDAPIIGSFNPKKGDIVLAQFSLDNSWNRAMIVNGPRGAVQSPEEEFEVFYIDYGNQEIVPYSAIRPVDPSVSSAPGLAQLCRLAYIKVPGKEEDFGRDAGEYLHTVTLESGKEFRAVVEERDTSGGKVKGQGTGTELVVTLIAVDDEISVNAAMLQEGIARMEKRRRWEPKDKQAALDALEKFQDEARKSRTGIWEYGDIQSDDEDNVPVRKPGRG
